Assay results reported in patent US8962333.
For part of these data: Tags and fusion partners may be left off the protein sequences shown. For part of these data: For at least one entry, the source does not settle the construct or the ends of the probe.

Key:
[1] = molecular target: T1, HaeIII restriction endonuclease (UniProt O68584); assay: enzyme reaction in vitro; settings: 37 C, 30 min; gel outcome not described in words; purified native protein; protein details: New England Biolabs; only the site is given
T1 sequence (looked up, limits assumed): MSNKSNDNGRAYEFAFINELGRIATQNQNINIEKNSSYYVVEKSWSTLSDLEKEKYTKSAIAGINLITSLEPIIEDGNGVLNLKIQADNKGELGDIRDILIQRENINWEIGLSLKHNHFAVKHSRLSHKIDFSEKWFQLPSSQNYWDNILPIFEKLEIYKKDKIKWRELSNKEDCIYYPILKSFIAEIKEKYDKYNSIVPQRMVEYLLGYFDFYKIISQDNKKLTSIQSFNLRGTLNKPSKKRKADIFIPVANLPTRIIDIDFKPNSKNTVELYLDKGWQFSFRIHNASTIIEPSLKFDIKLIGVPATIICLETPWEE

[2] = system: CbeI (Cbes_2438) restriction endonuclease (Caldicellulosiruptor bescii); assay: enzyme reaction in vitro; settings: 75 C, 30 min; gel outcome not described in words; purified recombinant protein; only the site is given
[3] = system: M.CbeI (Cbes_2437) methyltransferase (Caldicellulosiruptor bescii); assay: activity assay; settings: m4C methylation of inner C in GGCC shown by sequencing trace peak heights; SAM, pH 8.5, 78 C; purified recombinant protein; protein details: C-terminal His-tag (pET24d, pDCW73), 0.837 kb ORF; only the site is given

Measured: activity on this sequence

GGCCAGCAAAAGGCCAGGAACCGTAAAAAGGCC (double strand) [pUC18 region with GGCC sites, unmethylated]
active: all assays above
